Laboratory results taken from patent US7416848B2, “DNA encoding SNORF25 receptor” (H. Lundbeck A/S, priority 1999, dated 2008).
For at least one compound, name, drawing or mass did not settle the structure.

Target: T1, SNORF25 receptor (Rattus norvegicus, UniProt Q7TQN8)
T1 construct: the entire coding region was amplified from Rin14b cell line cDNA and rat genomic DNA; expressed in transfected cells; host or cells: CHO cells, transient (electroporation)
T1 sequence (Q7TQN8 with tags, fused parts or gaps limits assumed): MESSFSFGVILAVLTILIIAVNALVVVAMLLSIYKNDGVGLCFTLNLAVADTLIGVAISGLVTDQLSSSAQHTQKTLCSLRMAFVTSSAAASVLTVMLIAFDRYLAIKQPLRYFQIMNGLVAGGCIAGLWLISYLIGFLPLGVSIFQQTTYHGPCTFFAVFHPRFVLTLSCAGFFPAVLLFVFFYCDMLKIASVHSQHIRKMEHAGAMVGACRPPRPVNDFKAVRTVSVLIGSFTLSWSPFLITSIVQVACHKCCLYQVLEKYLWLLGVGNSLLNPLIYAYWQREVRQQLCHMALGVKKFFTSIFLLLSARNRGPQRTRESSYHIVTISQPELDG
Assay: cAMP release in CHO cells transiently transfected with SNORF25
Format: cell-based
Settings: forskolin control (FIG. 6)
Procedure: CHO cells are grown on 150 mm plates in HAM's F-12 medium with supplements (10% bovine calf serum, 4 mM L-glutamine and 100 units/ml penicillin/100 μg/ml streptomycin) at 37° C., 5% CO2. Stock plates of CHO cells are trypsinized and split 1:8 every 3–4 days.
A typical protocol for the electroporation method as applied to Cos-7 cells is described as follows. Cells to be used for transfection are split 24 hours prior to the transfection to provide flasks which are subconfluent at the time of transfection. The cells are harvested by trypsinization resuspended in their growth media and counted. 5×10^6 cells are suspended in 300 μl of DMEM and placed into an electroporation cuvette. 8 μg of receptor DNA plus 8 μg of any additional DNA needed (e.g. G protein expression vector, reporter construct, antibiotic resistance marker, mock vector, etc.) is added to the cell suspension, the cuvette is placed into a BioRad Gene Pulser and subjected to an electrical pulse (Gene Pulser settings: 0.25 kV voltage, 950 μF capacitance). […]
The receptor-mediated stimulation or inhibition of cyclic AMP (cAMP) formation may be assayed in cells expressing the receptors. […] The plates are stored at 4° C. for 15 min, and the cAMP content in the stopping solution is measured by radioimmunoassay. Radioactivity may be quantified using a gamma counter equipped with data reduction software. […]

Q: For `C=C[C@@]1(C)CC(=O)[C@]2(O)[C@@]3(C)[C@@H](O)CCC(C)(C)[C@@H]3[C@H](O)[C@H](OC(C)=O)[C@@]2(C)O1` [forskolin], which “cAMP response, mock- versus SNORF25-transfected cells” value is on record?
A: almost identical
